{"sequences": {"note": "The chains behind the UniProt entries cited, without tags or fusion partners.", "UniProt P98175": "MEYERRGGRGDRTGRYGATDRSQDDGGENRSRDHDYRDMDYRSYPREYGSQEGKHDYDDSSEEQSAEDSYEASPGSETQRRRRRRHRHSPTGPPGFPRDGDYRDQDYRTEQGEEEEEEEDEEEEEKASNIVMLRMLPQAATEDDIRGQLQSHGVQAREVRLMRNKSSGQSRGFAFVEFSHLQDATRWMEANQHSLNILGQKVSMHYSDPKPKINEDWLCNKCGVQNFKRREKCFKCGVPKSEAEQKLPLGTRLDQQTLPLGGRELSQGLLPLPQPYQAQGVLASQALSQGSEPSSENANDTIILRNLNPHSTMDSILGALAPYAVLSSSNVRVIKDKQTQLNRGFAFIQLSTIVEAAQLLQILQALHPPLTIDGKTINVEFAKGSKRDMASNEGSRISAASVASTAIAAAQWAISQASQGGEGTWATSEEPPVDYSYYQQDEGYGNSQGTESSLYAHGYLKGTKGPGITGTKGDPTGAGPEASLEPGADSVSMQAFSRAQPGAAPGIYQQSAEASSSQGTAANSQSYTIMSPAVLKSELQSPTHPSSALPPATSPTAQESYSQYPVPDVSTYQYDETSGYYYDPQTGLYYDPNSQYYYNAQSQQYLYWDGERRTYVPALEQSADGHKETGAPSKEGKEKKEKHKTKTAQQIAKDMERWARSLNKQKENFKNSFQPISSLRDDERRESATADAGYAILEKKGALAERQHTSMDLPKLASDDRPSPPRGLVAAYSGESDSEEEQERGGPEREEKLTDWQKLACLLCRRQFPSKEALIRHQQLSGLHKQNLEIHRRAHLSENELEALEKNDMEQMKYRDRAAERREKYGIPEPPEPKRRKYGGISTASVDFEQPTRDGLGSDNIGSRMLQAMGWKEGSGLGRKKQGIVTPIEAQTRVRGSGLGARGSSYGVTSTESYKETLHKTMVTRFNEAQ"}, "source": "paper PMC10908107", "target": "T1, PIN2/TERF1-interacting telomerase inhibitor (PinX1) (human (endogenous in A549)) (UniProt Q96BK5)", "T1 sequence": "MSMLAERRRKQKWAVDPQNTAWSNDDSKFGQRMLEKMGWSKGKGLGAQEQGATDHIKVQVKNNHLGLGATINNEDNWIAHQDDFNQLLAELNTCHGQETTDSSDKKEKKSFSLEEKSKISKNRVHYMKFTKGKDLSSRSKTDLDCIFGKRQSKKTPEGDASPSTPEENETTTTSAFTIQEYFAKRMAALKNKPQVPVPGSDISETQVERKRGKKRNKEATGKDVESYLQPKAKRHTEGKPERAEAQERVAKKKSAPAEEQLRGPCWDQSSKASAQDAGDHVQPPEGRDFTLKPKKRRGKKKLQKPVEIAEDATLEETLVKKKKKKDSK", "experiment": "affinity purification with mass spectrometry; A549 cells lysed in IP lysis buffer; immunoprecipitation with anti-PinX1 antibody or IgG at 4 °C overnight, Protein A/G magnetic beads, SDS-PAGE, mass spectrometry", "note": "No constants are given. Whether binding was seen depends on the method and setting. In cells and extracts the contact can be indirect. A yes stands for co-enrichment or nearness to the bait. Other partners may have been found."}
{"substance": "RNA-binding motif protein 10 (RBM10) (from UniProt P98175 1-930)", "values": [{"measurement": "binding", "value": "binds"}]}
